No constants are given. Whether binding was seen depends on the method and setting. Some entries that bind do so weakly or less than the wild type. Blank lines part the entries; values can stand above or below the binder they belong to.
Biological target: cynomolgus (cyno) CD19 (cynomolgus)
Assay: summary sentence of the examples; no method at this place

binding: binds
B1: NEG218 (antibody, V domains shown)
VH: EVQLVQSGAEVKKPGESLKISCKASGYSFTNYWMNWVRQMPGKGLEWMGMIHPSDSEIRLNQKFQGQVTLSVDKSIGTAYMQWSSLKASDTAMYYCSRWYYLSSPMDYWGQGTTVTVSS
VL: EIVMTQSPATLSVSPGERATLSCRASQDVGTAVAWYQQKPGQAPRLLIYWASTRHTGIPARFSGSGSGTEFTLTISSLQSEDFAVYFCQQYSSYPYTFGQGTKLEIK

binding: binds
B2: NEG258 (antibody, V domains shown)
VH: QVQLVQSGAEVKKPGASVKVSCKASGYTFTTYWIQWVRQAPGQRLEWMGAVYPGDADTRYTQKFQGRVTLTADRSASTAYMELSSLRSEDTAVYYCGRDAGLEYYALDYWGQGTLVTVSS
VL: EIVMTQSPATLSVSPGERATLSCRASQDVGTAVAWYQQKPGQAPRLLIYWASTRHTGIPARFSGSGSGTEFTLTISSLQSEDFAVYFCQQYANFPLYTFGQGTKLEIK

From US20240025993A1, “CD19 BINDING MOLECULES AND USES THEREOF” (NOVARTIS AG, priority 2020, published 2024)
